The values that follow come from PubChem BioAssay AID260 (DTP/NCI, 2004).

This test relates to CD2F1 mice, intracerebral L1210 leukemia, survival T/C. Put plainly: NCI In Vivo Anticancer Drug Screen. Data for tumor model L1210 Leukemia (intracerebral) in CD2F1 (CDF1) mice. The conditions noted are these: T/C endpoint: median survival time, schedule: Q01DX005 (ip), vehicle: saline with Tween-80, higher T/C = longer survival. The procedure:
The antitumor activity of compounds was measured in mice bearing transplantable tumors. Survival or tumor size were measured and the results are expressed as the measurement made in the treated group (T) divided by the measurement made in the vehicle treated control group (C). The tumor model used in this assay is L1210 Leukemia (intracerebral) in CD2F1 (CDF1) mice

The list shows only some results of the screen, not a fair sample: its compounds were picked by chemical class. Other doses and runs of a compound may be missing. T/C: endpoint of the treated group in % of that of the vehicle group. Where survival is the endpoint, the PubChem record calls one and a half times the control and up active, and a quarter to a half above the control has no call in these data; cut-offs in other NCI protocols can differ. Some T/C values are marked as having no survivor count here; that says nothing about deaths at the dose. Schedule codes are those of the source, taken here to give the interval after Q, in days (D) or hours (H), and the number of doses after X.

For `Cc1cc2nc(CN(CCCl)CCCl)[nH]c2cc1C`, the T/C (dose: 1.0 mg/kg/injection) is 97 % of control [survivor count not shown]; the T/C (dose: 2.0 mg/kg/injection) was 110 % of control [survivor count not shown]; the T/C (dose: 4.0 mg/kg/injection) was 110 % of control [survivor count not shown]; the T/C (dose: 8.0 mg/kg/injection) was 117 % of control [survivor count not shown]; the T/C (dose: 16.0 mg/kg/injection) was 92 % of control [survivor count not shown].
